Measurements taken from paper PMC9392644.
These are yes or no findings as the source states them, for the method shown. Binding seen in cells or lysates may run through a third protein. Some binding calls cover weakened binding; strength is not graded here. Tags and fused reporters may be left off the sequences shown.

The chains behind the UniProt entries cited, without tags or fusion partners.
UniProt P05412: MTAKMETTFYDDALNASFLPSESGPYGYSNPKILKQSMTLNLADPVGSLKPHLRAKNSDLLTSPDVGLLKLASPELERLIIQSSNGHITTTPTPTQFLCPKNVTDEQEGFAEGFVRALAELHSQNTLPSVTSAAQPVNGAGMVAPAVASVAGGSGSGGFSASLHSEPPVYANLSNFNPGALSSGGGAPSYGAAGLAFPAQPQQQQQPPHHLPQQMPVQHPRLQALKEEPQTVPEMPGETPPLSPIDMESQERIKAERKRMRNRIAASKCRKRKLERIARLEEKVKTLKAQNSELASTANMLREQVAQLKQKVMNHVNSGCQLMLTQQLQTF

Biological target: T1, His-tagged UHRF1 (ubiquitin-like with PHD and ring-finger domain 1) (human) (UniProt Q96T88)
T1 sequence: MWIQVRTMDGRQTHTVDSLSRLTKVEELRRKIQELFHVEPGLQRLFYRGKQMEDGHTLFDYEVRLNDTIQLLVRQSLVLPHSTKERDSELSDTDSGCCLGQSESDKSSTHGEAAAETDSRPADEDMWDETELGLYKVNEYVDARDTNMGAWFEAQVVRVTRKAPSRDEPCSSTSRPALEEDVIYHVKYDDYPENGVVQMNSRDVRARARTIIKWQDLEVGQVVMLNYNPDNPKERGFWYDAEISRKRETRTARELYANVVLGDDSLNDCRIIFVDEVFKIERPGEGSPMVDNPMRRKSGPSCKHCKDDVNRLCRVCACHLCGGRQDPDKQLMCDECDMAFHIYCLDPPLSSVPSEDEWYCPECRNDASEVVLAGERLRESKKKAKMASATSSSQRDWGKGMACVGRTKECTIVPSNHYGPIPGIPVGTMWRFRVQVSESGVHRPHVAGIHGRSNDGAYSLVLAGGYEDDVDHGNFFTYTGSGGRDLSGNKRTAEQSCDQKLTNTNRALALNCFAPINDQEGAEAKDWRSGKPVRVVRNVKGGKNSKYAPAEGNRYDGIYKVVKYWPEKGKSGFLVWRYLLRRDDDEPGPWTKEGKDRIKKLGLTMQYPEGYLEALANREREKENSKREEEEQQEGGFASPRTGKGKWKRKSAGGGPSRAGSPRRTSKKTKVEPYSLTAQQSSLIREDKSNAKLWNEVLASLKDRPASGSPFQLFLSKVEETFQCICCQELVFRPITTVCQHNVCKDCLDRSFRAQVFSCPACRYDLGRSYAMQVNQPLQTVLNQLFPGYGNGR
Assay: co-IP; BCPAP cells cotransfected with His-tagged UHRF1 and Flag-tagged c-Jun; IP lysis buffer (20 mM Tris-HCl pH 8.0, 150 mM NaCl, 0.5% NP-40, 10% glycerol); lysate incubated with His-tag or Flag-tag antibody 3 h at 4°C, then Protein A/G beads 16 h at 4°C; bound proteins detected with His-tag or Flag-tag antibodies

Flag-tagged c-Jun/AP-1 (from UniProt P05412 1-331)
binding: binds
